{"sequences": {"note": "Protein sequences, listed by entry. Tags and fused reporters are not part of them. Lines headed by an entry give the natural chain unless they say otherwise; changes in a name come on top.", "UniProt Q9P2J5": "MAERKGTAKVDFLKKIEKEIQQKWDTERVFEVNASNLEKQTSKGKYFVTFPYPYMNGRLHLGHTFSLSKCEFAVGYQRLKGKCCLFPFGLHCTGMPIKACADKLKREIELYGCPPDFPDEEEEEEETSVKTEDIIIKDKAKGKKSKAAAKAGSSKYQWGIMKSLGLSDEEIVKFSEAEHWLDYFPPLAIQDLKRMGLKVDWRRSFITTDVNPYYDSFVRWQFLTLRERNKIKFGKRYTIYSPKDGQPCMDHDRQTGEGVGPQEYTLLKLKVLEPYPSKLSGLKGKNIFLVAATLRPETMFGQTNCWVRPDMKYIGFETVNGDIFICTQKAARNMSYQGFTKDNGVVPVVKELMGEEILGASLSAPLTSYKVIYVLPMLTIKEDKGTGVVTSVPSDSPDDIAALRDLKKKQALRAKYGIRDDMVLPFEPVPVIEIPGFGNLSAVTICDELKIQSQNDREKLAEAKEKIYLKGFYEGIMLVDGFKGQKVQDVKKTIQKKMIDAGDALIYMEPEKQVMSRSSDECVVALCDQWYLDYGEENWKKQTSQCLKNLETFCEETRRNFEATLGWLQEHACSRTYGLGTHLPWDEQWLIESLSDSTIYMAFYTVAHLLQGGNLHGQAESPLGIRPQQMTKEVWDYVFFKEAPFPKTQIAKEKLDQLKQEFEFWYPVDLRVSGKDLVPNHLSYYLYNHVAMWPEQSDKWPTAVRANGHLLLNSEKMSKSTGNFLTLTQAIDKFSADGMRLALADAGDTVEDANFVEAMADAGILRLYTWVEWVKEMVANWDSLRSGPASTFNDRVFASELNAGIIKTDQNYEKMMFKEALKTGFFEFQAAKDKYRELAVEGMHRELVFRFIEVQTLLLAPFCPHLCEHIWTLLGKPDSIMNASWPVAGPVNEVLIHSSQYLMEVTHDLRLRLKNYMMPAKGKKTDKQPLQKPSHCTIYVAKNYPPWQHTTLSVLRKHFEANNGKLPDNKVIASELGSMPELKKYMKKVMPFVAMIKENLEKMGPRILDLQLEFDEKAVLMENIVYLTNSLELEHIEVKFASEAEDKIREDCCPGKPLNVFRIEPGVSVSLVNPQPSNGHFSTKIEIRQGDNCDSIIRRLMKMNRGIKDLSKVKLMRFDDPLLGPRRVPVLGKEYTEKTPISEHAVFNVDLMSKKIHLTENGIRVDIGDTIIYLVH", "UniProt Q14657": "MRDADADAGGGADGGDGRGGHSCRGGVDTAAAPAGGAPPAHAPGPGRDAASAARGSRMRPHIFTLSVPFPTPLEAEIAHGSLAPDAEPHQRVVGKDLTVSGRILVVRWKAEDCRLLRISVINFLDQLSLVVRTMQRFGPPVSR", "UniProt O00139": "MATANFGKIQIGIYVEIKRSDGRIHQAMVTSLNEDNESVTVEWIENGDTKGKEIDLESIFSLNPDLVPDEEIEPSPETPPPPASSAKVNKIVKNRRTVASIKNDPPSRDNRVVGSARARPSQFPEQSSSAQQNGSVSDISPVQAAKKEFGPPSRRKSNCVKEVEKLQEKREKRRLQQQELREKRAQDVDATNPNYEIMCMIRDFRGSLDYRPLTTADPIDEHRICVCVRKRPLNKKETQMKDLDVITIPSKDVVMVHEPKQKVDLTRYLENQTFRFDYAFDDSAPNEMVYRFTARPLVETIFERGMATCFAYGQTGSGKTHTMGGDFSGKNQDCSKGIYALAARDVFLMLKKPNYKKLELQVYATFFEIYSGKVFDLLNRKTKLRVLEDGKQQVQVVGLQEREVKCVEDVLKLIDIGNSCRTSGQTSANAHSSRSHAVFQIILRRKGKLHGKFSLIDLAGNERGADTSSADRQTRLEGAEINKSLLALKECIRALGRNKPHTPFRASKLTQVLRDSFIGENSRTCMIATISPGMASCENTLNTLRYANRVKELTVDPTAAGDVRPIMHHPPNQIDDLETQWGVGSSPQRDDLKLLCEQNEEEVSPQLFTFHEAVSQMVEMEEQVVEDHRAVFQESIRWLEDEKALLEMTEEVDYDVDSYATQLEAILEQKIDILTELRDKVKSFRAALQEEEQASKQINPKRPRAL", "UniProt P13796": "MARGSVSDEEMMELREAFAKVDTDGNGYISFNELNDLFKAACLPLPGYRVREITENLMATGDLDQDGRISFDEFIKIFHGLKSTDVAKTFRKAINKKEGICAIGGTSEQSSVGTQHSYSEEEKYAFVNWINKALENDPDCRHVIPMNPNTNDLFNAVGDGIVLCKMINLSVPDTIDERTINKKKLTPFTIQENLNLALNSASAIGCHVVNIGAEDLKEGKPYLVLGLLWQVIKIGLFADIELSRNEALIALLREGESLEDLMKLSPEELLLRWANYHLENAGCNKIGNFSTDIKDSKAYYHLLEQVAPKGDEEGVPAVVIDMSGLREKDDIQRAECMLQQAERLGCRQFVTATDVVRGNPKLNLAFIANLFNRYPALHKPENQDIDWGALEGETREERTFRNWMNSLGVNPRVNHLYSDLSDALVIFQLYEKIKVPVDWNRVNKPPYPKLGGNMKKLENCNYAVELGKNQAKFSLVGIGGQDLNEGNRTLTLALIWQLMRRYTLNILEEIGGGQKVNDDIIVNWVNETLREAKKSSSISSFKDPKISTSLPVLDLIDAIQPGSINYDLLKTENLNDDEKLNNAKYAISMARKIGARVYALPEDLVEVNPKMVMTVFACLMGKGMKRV", "UniProt Q86WU2": "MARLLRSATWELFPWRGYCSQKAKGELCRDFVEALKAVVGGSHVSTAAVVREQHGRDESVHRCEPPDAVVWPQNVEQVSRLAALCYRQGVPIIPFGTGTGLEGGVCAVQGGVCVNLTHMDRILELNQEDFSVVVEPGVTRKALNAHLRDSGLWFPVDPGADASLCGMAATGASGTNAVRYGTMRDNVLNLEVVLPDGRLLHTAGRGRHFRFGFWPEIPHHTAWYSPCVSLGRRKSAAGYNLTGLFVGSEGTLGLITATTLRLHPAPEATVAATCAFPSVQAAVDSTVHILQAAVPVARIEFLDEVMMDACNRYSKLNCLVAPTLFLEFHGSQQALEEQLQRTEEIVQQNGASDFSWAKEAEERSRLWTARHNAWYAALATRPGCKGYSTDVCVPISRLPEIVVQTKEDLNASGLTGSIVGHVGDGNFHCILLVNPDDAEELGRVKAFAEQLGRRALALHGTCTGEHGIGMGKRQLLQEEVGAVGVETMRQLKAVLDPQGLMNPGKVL", "UniProt Q14847": "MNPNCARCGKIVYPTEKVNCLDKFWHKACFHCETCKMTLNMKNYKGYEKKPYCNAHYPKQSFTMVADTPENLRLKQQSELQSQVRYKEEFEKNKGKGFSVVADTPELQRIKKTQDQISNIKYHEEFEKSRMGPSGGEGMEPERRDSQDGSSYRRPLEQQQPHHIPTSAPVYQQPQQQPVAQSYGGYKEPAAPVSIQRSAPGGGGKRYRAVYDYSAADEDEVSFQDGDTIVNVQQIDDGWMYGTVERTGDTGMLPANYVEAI", "UniProt O95239": "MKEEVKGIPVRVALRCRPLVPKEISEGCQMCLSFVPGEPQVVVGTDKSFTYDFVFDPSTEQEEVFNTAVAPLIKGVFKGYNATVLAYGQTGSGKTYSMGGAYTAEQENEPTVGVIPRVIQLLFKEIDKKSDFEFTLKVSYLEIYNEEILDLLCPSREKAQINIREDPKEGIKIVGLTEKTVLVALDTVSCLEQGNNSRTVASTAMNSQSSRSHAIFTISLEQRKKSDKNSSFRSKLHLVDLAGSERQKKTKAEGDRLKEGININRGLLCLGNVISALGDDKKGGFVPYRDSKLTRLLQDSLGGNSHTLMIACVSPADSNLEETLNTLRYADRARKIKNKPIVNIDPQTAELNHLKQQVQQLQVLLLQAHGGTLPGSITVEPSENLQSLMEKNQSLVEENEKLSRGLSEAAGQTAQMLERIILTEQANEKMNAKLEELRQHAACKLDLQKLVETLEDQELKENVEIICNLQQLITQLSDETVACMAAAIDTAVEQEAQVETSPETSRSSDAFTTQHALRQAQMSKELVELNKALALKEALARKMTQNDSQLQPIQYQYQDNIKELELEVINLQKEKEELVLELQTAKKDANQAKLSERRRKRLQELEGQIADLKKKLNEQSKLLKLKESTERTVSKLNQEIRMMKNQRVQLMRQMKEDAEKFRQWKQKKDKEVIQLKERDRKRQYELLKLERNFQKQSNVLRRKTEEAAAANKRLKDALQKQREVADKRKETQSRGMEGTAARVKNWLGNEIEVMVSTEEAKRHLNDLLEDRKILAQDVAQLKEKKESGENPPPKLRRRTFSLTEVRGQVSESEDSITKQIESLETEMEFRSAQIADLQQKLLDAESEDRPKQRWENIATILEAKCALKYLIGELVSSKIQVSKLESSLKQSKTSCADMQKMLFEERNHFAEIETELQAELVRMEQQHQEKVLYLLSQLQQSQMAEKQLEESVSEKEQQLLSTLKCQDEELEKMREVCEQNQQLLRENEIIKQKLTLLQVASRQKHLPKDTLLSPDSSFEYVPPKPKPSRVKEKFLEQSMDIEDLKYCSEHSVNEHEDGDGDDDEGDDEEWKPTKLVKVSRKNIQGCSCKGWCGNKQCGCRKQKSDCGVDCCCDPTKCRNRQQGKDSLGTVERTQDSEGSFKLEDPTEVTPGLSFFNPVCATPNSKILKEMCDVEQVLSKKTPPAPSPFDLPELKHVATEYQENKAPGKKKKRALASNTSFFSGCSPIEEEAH", "UniProt Q53GT1": "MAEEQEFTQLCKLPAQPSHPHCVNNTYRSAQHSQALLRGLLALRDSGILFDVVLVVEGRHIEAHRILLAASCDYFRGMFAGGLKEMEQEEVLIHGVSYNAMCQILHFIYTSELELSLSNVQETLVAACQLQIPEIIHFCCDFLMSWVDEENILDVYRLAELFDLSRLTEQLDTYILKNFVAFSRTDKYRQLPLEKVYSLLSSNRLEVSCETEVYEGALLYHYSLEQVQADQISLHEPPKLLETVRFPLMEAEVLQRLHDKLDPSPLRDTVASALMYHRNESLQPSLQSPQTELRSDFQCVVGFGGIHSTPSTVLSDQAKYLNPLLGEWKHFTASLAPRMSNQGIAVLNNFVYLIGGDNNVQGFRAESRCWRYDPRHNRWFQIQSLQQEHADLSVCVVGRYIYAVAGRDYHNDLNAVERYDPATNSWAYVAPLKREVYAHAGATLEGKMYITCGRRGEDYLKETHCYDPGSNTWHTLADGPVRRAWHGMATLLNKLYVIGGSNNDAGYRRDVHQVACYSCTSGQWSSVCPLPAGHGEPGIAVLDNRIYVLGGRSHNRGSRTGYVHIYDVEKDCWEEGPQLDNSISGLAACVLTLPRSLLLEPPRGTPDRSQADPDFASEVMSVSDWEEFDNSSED", "UniProt Q96JN0": "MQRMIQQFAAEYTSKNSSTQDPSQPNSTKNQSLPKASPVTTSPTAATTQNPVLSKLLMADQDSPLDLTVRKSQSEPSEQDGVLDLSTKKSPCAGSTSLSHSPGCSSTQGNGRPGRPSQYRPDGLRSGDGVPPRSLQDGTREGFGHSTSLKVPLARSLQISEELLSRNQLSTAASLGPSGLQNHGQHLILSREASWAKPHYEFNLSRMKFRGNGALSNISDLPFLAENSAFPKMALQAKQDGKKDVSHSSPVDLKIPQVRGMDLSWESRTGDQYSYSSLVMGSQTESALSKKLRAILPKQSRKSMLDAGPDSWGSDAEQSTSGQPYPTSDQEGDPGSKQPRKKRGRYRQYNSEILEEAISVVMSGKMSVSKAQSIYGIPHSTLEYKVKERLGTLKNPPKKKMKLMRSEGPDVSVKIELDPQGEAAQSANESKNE", "UniProt Q9NS86": "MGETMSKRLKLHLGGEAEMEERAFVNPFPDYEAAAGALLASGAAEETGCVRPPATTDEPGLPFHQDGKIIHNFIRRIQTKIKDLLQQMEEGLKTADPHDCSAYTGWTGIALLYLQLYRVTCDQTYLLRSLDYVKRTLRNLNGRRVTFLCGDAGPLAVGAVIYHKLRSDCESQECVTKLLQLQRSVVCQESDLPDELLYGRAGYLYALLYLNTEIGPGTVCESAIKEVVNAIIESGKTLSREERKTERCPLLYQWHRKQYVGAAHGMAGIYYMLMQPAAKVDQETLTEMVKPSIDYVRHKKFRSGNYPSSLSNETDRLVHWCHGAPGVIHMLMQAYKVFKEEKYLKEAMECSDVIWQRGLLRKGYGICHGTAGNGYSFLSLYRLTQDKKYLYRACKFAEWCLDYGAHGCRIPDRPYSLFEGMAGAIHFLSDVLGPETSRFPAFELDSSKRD", "UniProt Q9Y2Q5, whole entry, looked up": "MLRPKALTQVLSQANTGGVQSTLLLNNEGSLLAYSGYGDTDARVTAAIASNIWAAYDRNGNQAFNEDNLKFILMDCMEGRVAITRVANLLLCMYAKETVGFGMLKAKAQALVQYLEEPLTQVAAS", "UniProt Q53H82": "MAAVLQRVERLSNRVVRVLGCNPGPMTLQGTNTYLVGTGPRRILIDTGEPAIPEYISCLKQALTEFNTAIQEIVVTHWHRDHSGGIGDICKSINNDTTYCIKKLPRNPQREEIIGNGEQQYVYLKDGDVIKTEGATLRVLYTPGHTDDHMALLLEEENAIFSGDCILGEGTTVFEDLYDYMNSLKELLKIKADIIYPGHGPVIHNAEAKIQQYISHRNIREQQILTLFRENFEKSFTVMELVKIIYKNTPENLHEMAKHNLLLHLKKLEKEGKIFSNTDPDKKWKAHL"}, "source": "the supplement of paper PMC12067093", "about": "“Discovery and optimisation of a covalent ligand for TRIM25 and its application to targeted protein ubiquitination” (Chemical Science, 2025)", "note": "Some of the results follow.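 Further: competitive profiling in live THP-1 cells: cysteine peptides tagged with an iodoacetamide desthiobiotin (IA-DTB) probe, intensity after compound treatment relative to DMSO-treated cells.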", "data": [{"compound": "Cc1cc(ccc1-c1ccccc1)C(=O)N1CCCN(CC1)C(=O)CCl [compound 10]", "experiment": "probe-labelled cysteine peptide fold change vs DMSO (competition) (log2 fold change); higher = less target engagement (more negative = stronger competition)", "details": "10 µM; THP-1; incubation time: 4 h", "values": [{"target": "LARS_Q9P2J5_1093_QGDNCDSIIR (UniProt Q9P2J5)", "probe-labelled cysteine peptide fold change": -0.104}, {"target": "LAGE3_Q14657_113_WKAEDCR (UniProt Q14657)", "probe-labelled cysteine peptide fold change": -0.182}, {"target": "LDHA_P00338_293_DDVFLSVPCILGQNGISDLVK (UniProt P00338)", "probe-labelled cysteine peptide fold change": 0.129}, {"target": "KIF2A_O00139_406_CVEDVLK (UniProt O00139)", "probe-labelled cysteine peptide fold change": 0.214}, {"target": "LCP1_P13796_42_AACLPLPGYR (UniProt P13796)", "probe-labelled cysteine peptide fold change": -0.387}, {"target": "LDHD_Q86WU2_384_HNAWYAALATRPGCK (UniProt Q86WU2)", "probe-labelled cysteine peptide fold change": -0.154}, {"target": "LASP1_Q14847_29+32_ACFHCETCK (UniProt Q14847)", "probe-labelled cysteine peptide fold change": 0.00859}, {"target": "KIF4A_O95239_965_CQDEELEK (UniProt O95239)", "probe-labelled cysteine peptide fold change": -0.106}, {"target": "KMT2B_Q9UMN6_1749_IDSLGTLSDLSDCEGR (UniProt Q9UMN6)", "probe-labelled cysteine peptide fold change": -0.0799}, {"target": "LCMT2_O60294_396_DCDSEWK (UniProt O60294)", "probe-labelled cysteine peptide fold change": -0.0402}, {"target": "LAMTOR5_O43504_23+33_NPSIVGVLCTDSQGLNLGCR (UniProt O43504)", "probe-labelled cysteine peptide fold change": 0.414}, {"target": "LAMC1_P11047_804_RCELCDDGYFGDPLGR (UniProt P11047)", "probe-labelled cysteine peptide fold change": 0.383}, {"target": "LDHD_Q86WU2_462_ALALHGTCTGEHGIGMGKR (UniProt Q86WU2)", "probe-labelled cysteine peptide fold change": -0.161}, {"target": "KLC4_Q9NSK0_53_SEHQAVLQSLSQTIECLQQGGHEEGLVHEK (UniProt Q9NSK0)", "probe-labelled cysteine peptide fold change": 0.00259}, {"target": "KIF23_Q02241_412_MIVCVNPK (UniProt Q02241)", "probe-labelled cysteine peptide fold change": 0.53}, {"target": "KLHL22_Q53GT1_11_AEEQEFTQLCK (UniProt Q53GT1)", "probe-labelled cysteine peptide fold change": -0.27}, {"target": "LCP1_P13796_336_AECMLQQAER (UniProt P13796)", "probe-labelled cysteine peptide fold change": -0.0514}, {"target": "LCOR_Q96JN0-3_1334_MECPDALAVESKPSR (UniProt Q96JN0)", "probe-labelled cysteine peptide fold change": -0.165}, {"target": "LCP1_P13796_336_DDIQRAECMLQQAER (UniProt P13796)", "probe-labelled cysteine peptide fold change": -0.504}, {"target": "KIF2A_O00139_420_LIDIGNSCR (UniProt O00139)", "probe-labelled cysteine peptide fold change": -0.0416}, {"target": "KIF4A_O95239_443_QHAACK (UniProt O95239)", "probe-labelled cysteine peptide fold change": -0.0955}, {"target": "LARS_Q9P2J5_70_CEFAVGYQR (UniProt Q9P2J5)", "probe-labelled cysteine peptide fold change": -0.278}, {"target": "LCOR_Q96JN0-3_531_ASCSALASEAVFTPK (UniProt Q96JN0)", "probe-labelled cysteine peptide fold change": -0.217}, {"target": "KLHDC4_Q8TBB5_465_QVTLSDLHCLDLHR (UniProt Q8TBB5)", "probe-labelled cysteine peptide fold change": -0.0743}, {"target": "L3MBTL3_Q96JM7_389_KNPSFICVATVTDMVDNR (UniProt Q96JM7)", "probe-labelled cysteine peptide fold change": -0.0217}, {"target": "LANCL2_Q9NS86_367_GYGICHGTAGNGYSFLSLYR (UniProt Q9NS86)", "probe-labelled cysteine peptide fold change": -0.271}, {"target": "LARS_Q9P2J5_573_NFEATLGWLQEHACSR (UniProt Q9P2J5)", "probe-labelled cysteine peptide fold change": -0.0255}, {"target": "LAS1L_Q9Y4W2_306_VECVLAELK (UniProt Q9Y4W2)", "probe-labelled cysteine peptide fold change": -0.217}, {"target": "LAMTOR2_Q9Y2Q5_92_VANLLLCMYAK (UniProt Q9Y2Q5)", "probe-labelled cysteine peptide fold change": 0.151}, {"target": "LAP3_P28838_462_SAGACTAAAFLK (UniProt P28838)", "probe-labelled cysteine peptide fold change": -0.151}, {"target": "KLHL26_Q53HC5_38_CTFSAPSHSTSLLQGLATLR (UniProt Q53HC5)", "probe-labelled cysteine peptide fold change": -0.0538}, {"target": "LCOR_Q96JN0-3_1334_MECPDALAVESK (UniProt Q96JN0)", "probe-labelled cysteine peptide fold change": 0.0815}, {"target": "LACTB2_Q53H82_90_DHSGGIGDICK (UniProt Q53H82)", "probe-labelled cysteine peptide fold change": -0.0717}, {"target": "KMT2A_Q03164_1194_CQNLQWMPSK (UniProt Q03164)", "probe-labelled cysteine peptide fold change": -0.0227}, {"target": "KTN1_Q86UP2_303_TMMFSEDEALCVVDLLK (UniProt Q86UP2)", "probe-labelled cysteine peptide fold change": -0.0544}, {"target": "KPNB1_Q14974_158_ESTLEAIGYICQDIDPEQLQDK (UniProt Q14974)", "probe-labelled cysteine peptide fold change": 0.247}]}]}
